From publication PMC10520887

Chains of the proteins cited; added tags and fusions are not shown. Lines headed by an entry give the natural chain unless they say otherwise; changes in a name come on top.
UniProt B8XX90: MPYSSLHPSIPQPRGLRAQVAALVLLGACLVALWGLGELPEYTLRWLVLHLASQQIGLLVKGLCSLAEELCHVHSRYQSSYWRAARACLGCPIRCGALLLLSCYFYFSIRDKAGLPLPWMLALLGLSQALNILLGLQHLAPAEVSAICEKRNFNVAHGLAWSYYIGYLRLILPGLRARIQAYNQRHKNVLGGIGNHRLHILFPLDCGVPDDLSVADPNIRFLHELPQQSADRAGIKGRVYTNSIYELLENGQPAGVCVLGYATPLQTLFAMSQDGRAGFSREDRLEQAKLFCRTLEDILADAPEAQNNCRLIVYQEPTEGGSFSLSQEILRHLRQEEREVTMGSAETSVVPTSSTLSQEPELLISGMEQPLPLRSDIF

Key:
[1] = target: GFP-pSTING (porcine STING) (porcine) (UniProt B8XX90); assay: co-IP; HEK293T cotransfected with the two tagged proteins for 48 h (legends; the methods say 24 h); lysis buffer 50 mM Tris pH 7.2, 150 mM NaCl, 1% sodium deoxycholate, 1% Triton X-100; antibody overnight at 4 °C, protein A/G beads 2 h; co-IP and reverse co-IP; Western blot
[2] = target: T1, GFP-pIRF3 (porcine IRF3) (porcine) (UniProt Q764M6); assay: as above
T1 sequence: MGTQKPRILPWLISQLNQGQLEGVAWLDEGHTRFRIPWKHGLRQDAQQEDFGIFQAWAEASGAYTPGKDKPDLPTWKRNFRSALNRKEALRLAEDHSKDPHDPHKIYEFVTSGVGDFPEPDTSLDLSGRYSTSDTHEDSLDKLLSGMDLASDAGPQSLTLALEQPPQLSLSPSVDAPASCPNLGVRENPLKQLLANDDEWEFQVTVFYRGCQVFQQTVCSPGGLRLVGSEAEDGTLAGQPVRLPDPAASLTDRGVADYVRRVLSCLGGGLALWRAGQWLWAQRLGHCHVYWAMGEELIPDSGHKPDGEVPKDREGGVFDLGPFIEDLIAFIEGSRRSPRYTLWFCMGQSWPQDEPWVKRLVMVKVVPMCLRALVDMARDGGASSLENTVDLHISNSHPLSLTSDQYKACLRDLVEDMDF

[3] = target: pTBK1-HA (porcine TBK1) (porcine); assay: co-IP; 293T cotransfected with 0.5 μg GFP-STING, 0.5 μg TBK1-HA and increasing pIKKε (0.5, 1, 1.5 μg), IP with anti-HA; or 0.5 μg GFP-STING, 0.5 μg mCherry-IKKε and increasing pTBK1 (0.5, 1, 1.5 μg), IP with anti-mCherry; 48 h; Western blot
[4] = target: mCherry-pTBK1 (porcine TBK1) (porcine); assay: co-IP; HEK293T cotransfected with the two tagged proteins for 48 h (legends; the methods say 24 h); lysis buffer 50 mM Tris pH 7.2, 150 mM NaCl, 1% sodium deoxycholate, 1% Triton X-100; antibody overnight at 4 °C, protein A/G beads 2 h; co-IP and reverse co-IP; Western blot
[5] = target: T2, mCherry-pIKKε (porcine IKKε) (porcine) (UniProt M9MMN5); assay: as above
T2 sequence: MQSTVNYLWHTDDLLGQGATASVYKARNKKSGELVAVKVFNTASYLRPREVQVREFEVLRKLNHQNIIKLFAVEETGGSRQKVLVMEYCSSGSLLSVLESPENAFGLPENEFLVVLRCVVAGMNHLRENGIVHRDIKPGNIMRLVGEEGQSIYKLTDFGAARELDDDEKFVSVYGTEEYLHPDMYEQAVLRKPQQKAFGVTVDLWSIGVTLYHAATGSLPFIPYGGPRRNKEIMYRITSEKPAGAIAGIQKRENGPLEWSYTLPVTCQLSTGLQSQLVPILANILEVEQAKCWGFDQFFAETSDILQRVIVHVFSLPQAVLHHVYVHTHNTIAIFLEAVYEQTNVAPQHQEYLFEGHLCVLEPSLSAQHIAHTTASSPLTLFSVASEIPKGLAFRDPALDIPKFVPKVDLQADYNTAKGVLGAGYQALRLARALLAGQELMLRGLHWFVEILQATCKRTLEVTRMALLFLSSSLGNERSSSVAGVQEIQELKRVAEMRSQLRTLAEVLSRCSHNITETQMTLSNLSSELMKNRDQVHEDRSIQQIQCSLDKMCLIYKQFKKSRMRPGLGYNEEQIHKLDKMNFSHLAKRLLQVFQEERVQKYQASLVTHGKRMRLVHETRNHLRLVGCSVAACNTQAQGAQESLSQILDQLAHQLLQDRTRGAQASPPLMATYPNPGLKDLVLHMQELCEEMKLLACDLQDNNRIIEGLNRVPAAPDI

- binding [1]: binds
Substance: mCherry-pTBK1 (porcine TBK1) (from UniProt A0A4X1W422)

- binding [2]: binds
Substance: pTBK1-HA (porcine TBK1) (from UniProt A0A4X1W422)

- binding [3]: binds
- binding [4]: binds
Substance: GFP-pSTING (porcine STING) (from UniProt B8XX90 1-378)

- binding [5]: no binding
Substance: GFP-pSTING ΔTBM (from UniProt B8XX90)

These are yes or no findings as the source states them, for the method shown. In cells and extracts the contact can be indirect. For some assays here: Binding calls can cover weak binding; strength is not graded here. For some assays here: Sequences can lack the tags named with a protein. Each block holds one substance with its values, some of them ahead of it.
